Results on 32 targets are retold here after the supplement of paper PMC10849652.

Chains of the proteins cited; added tags and fusions are not shown. Lines headed by an entry give the natural chain unless they say otherwise; changes in a name come on top.
UniProt P0DMQ5: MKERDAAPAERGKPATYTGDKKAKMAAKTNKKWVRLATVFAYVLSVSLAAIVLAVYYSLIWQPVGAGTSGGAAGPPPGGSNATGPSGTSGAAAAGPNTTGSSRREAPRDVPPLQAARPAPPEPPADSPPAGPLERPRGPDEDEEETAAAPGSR
UniProt Q9H7X7: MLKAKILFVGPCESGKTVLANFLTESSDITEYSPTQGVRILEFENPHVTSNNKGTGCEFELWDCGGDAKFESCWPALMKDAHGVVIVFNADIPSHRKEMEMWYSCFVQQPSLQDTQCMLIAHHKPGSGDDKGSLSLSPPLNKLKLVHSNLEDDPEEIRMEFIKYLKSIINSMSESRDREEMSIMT
UniProt Q14642: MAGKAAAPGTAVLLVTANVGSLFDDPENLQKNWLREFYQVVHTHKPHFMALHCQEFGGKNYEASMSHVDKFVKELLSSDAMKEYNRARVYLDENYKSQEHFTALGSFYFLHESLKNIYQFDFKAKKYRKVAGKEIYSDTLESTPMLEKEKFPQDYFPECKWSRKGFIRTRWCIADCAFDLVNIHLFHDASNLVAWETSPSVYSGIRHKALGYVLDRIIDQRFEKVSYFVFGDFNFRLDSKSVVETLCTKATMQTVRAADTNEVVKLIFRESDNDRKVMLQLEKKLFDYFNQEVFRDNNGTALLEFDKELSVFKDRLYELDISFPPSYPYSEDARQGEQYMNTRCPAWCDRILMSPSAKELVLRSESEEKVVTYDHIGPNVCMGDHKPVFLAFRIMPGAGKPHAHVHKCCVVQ
UniProt P50213: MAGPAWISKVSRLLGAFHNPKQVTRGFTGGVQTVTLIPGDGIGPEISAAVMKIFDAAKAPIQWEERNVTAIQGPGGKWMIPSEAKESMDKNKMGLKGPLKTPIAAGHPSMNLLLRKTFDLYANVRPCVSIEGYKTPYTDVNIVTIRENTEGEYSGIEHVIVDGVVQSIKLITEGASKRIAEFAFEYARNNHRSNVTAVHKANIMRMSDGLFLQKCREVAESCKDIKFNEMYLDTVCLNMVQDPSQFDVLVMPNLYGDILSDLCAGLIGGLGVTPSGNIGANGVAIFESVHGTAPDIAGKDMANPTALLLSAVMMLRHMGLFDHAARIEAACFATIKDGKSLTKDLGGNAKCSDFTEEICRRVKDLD
UniProt Q14773: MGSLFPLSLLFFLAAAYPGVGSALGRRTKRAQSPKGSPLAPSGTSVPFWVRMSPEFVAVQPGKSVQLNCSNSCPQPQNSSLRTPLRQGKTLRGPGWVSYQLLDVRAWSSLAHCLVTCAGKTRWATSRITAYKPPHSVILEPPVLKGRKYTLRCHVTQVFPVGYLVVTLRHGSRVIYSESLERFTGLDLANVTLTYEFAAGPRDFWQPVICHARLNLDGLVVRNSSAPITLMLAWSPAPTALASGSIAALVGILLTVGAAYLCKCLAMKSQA
UniProt Q9C086, whole entry, looked up: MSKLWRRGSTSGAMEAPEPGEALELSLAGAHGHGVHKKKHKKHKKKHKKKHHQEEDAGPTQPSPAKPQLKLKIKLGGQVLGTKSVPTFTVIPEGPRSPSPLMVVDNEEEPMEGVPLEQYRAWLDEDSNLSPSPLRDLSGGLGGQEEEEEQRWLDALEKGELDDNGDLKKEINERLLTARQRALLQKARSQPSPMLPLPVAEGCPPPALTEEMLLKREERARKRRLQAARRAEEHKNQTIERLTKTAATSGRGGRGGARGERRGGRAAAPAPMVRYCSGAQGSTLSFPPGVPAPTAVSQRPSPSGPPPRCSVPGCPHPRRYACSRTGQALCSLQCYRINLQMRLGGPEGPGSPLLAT
UniProt Q92598: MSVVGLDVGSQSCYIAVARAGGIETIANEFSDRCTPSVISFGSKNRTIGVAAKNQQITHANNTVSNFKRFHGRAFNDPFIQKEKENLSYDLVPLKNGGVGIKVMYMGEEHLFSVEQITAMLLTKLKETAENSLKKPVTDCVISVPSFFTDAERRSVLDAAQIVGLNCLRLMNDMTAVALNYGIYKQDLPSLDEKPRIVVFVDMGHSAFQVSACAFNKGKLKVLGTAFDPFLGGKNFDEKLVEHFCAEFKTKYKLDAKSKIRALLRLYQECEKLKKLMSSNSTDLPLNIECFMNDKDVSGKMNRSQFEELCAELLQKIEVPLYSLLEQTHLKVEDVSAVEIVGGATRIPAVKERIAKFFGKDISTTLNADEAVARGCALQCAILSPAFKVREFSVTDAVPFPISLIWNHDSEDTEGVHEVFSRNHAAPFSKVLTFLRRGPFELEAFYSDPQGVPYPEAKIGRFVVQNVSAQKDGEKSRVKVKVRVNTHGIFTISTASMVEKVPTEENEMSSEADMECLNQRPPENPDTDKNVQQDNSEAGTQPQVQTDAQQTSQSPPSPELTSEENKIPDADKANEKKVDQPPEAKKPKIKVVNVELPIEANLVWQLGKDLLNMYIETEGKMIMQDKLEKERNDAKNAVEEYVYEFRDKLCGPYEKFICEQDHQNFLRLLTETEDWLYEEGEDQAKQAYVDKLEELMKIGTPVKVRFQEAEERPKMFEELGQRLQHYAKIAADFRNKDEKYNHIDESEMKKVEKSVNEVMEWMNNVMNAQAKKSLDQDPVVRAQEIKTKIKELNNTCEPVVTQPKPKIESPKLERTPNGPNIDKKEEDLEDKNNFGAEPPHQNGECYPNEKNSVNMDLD
UniProt Q9NRY2: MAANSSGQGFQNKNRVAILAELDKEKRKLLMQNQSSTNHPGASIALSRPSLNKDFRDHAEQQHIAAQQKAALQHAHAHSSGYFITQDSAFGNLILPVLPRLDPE
UniProt Q96G21: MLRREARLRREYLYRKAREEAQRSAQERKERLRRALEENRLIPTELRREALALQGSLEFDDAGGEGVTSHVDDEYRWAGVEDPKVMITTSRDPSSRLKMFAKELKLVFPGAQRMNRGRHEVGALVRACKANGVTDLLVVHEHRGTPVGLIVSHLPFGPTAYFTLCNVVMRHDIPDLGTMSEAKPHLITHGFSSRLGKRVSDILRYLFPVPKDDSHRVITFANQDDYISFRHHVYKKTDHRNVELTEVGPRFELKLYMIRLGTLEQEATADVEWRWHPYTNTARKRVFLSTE
UniProt Q9UNL4, whole entry, looked up: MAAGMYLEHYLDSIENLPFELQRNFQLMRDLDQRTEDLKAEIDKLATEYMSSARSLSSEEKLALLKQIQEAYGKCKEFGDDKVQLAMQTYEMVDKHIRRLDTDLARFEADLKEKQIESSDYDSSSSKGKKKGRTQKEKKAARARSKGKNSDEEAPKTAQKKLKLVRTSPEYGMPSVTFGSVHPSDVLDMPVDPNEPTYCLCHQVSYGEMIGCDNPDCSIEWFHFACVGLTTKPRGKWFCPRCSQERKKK
UniProt Q9H160: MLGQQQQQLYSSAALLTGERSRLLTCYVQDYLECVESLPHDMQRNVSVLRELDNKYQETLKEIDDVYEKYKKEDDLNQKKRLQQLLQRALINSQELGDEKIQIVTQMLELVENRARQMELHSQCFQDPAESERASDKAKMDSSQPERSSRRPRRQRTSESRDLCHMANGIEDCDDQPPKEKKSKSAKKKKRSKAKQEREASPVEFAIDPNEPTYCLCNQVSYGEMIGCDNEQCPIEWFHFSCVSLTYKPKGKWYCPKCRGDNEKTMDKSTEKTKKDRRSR
UniProt Q9ULG1, whole entry, looked up: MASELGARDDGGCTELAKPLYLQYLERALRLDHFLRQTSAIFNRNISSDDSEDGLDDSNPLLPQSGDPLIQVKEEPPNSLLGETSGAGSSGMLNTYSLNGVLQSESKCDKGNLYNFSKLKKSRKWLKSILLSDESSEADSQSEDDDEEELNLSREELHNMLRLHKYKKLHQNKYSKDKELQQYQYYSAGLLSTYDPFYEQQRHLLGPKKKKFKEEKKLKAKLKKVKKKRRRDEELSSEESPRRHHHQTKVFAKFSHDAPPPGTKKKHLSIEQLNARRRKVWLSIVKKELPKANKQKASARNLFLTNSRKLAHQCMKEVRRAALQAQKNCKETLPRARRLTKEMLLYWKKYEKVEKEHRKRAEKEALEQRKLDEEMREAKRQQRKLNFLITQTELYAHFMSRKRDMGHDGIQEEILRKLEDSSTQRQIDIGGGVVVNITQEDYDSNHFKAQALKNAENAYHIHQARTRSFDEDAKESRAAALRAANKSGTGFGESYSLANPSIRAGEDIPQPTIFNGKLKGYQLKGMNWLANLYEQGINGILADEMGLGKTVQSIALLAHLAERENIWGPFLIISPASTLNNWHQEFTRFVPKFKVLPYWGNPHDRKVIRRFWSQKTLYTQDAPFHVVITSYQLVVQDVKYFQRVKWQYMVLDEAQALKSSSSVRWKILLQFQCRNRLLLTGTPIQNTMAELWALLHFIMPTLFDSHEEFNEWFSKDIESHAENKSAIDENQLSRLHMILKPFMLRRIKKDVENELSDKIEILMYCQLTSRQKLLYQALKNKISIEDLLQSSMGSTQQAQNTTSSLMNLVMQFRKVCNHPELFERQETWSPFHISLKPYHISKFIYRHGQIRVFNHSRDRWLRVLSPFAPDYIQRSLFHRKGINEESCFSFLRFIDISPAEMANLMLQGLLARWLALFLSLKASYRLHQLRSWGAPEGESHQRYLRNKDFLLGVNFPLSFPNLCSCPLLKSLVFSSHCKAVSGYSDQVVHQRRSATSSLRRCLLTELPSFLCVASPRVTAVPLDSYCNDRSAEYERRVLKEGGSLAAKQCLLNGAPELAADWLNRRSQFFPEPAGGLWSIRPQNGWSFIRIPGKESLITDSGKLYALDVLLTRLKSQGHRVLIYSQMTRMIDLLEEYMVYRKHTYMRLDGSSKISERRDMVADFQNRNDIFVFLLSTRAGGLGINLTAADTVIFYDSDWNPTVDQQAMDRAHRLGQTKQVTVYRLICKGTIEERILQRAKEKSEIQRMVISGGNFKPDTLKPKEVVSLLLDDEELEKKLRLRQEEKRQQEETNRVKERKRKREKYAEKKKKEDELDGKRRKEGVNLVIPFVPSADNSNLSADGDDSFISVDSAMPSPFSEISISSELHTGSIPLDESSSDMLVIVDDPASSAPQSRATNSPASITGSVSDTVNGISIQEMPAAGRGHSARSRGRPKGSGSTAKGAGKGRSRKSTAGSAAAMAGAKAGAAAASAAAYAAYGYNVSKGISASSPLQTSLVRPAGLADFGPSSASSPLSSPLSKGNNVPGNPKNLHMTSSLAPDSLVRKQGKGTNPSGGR
UniProt P78552: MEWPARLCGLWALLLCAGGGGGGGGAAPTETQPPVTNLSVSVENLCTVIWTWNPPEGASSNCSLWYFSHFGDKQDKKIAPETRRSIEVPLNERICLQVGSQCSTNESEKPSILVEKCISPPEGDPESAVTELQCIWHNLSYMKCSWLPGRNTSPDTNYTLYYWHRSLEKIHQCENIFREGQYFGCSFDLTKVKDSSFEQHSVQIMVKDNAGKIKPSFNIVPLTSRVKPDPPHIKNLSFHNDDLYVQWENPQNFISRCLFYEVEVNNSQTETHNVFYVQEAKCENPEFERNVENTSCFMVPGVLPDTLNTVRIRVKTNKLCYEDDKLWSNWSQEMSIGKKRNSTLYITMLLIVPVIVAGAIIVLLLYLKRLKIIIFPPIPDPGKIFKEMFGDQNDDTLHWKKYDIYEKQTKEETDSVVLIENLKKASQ
UniProt P35475: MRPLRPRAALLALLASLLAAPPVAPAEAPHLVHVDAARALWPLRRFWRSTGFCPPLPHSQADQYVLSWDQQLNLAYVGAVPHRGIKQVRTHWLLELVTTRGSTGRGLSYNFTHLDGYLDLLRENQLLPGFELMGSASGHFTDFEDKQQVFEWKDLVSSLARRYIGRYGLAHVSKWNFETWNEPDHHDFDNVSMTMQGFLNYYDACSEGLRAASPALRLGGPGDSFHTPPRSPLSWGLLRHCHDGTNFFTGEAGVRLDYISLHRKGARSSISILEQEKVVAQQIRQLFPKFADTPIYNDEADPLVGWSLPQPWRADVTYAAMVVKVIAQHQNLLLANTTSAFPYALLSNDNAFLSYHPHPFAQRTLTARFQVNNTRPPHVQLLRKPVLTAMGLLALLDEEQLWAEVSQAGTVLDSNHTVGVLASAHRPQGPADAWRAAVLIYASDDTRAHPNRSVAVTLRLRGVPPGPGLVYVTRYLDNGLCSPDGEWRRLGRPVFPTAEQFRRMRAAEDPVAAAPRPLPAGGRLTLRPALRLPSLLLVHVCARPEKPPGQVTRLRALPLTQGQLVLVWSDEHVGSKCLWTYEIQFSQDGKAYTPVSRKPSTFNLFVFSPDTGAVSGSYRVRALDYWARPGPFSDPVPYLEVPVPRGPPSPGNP
UniProt Q96D96: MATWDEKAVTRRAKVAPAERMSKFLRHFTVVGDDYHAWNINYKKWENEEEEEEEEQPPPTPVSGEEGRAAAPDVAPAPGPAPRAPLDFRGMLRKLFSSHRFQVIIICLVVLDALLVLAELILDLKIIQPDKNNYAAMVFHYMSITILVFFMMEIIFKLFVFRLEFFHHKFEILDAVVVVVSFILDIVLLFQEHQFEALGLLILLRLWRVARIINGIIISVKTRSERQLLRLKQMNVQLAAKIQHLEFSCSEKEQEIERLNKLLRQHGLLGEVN

This is one part of the list.

Compound in one assay: Cc1nc(Nc2ncc(C(=O)Nc3c(C)cccc3Cl)s2)cc(N2CCN(CCO)CC2)n1 [dasatinib]
Put plainly: log2 fold change, soluble protein after heating vs DMSO (PISA); higher = thermal stabilisation; K562 lysate, 10 uM; active = over 0.2 and 3.5 SD of the protein, either way, in both replicates (recomputed). Summed up:
(§1)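 Values give the log-two fold change in thermal stability against solvent controls, from duplicates. Crude K562 extract at 1 mg/mL protein, made by dounce homogenisation in PBS pH 7.4 with 1 mM MgCl2, was treated with 10 μM compound for 30 min. After 3 min heating across 48°C-58°C, aliquots were pooled, adjusted to 0.5% NP-40 at 4°C and centrifuged at 21,000xg for 90 min. The supernatant was measured by TMTpro 16plex LC-MS/MS with channel sums equalised.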
Take INAFM2 (UniProt P0DMQ5): the log2 fold change was inactive: -0.08.
In the case of HYOU1, A0A494C039, the log2 fold change was inactive: 0.
Consider IFT22 (UniProt Q9H7X7), for which the log2 fold change was inactive: -0.101.
As to INPP5A (UniProt Q14642), the log2 fold change is inactive: 0.066.
For HYDIN (UniProt Q4G0P3), the log2 fold change was inactive: -0.034.
Still for that read-out and setting: under IDH3A isoform 2 (UniProt P50213) stands inactive: -0.118.
ICAM4 (UniProt Q14773): the log2 fold change is inactive: 0.023.
On the same count and under the same terms, under ICAM4 isoform 3 (UniProt Q14773) stands inactive: -0.081; under INO80B (UniProt Q9C086), inactive: 0.32.
On to HSPH1 isoform 2 (UniProt Q92598), for which the log2 fold change is inactive: -0.386.
As to HUWE1, A0A087X1S3, the log2 fold change is inactive: 0.123.
As for INIP (UniProt Q9NRY2), the log2 fold change was inactive: -0.069.

Compound in the next assay: Cn1cc(-c2ccc3c(c2)CCN3C(=O)Cc2cccc(C(F)(F)F)c2)c2c(N)ncnc21
The assay is described as above. Summed up:
as §1
With INAFM2 (UniProt P0DMQ5), the log2 fold change was inactive: 0.04.
Turning to HYOU1, A0A494C039, the log2 fold change was inactive: 0.066.
IFT22 (UniProt Q9H7X7): the log2 fold change was inactive: 0.004.
Consider INPP5A (UniProt Q14642), for which the log2 fold change is inactive: 0.129.
With HYDIN (UniProt Q4G0P3), the log2 fold change was inactive: 0.219.
IDH3A isoform 2 (UniProt P50213): the log2 fold change is inactive: 0.014.
For the target ICAM4 (UniProt Q14773), the log2 fold change was inactive: -0.024.
For ICAM4 isoform 3 (UniProt Q14773), the log2 fold change was inactive: -0.098.
As to INO80B (UniProt Q9C086), the log2 fold change is inactive: 0.088.
For the target HSPH1 isoform 2 (UniProt Q92598), the log2 fold change is inactive: 0.17.
HUWE1, A0A087X1S3: the log2 fold change was inactive: -0.269.
In the case of INIP (UniProt Q9NRY2), the log2 fold change was inactive: 0.207.

Compound in a further assay: Cn1cc(CNCC2CCN(c3ncc(C(=O)NO)cn3)CC2)c2ccccc21 [quisinostat]
The description is as above. Summed up:
as §1
In the case of INAFM2 (UniProt P0DMQ5), the log2 fold change is inactive: -0.012.
Still for that read-out and setting: then IMP4 (UniProt Q96G21), with inactive: -0.079.
Take IL15RA (UniProt Q13261): the log2 fold change was inactive: 0.156.
Same read-out and setting: then IGLL5 (UniProt B9A064), with inactive: 0.089.
Consider ING4 (UniProt Q9UNL4), for which the log2 fold change is inactive: 0.04.
As to ILF3 (UniProt K7EKJ9), the log2 fold change is inactive: 0.039.
Turning to IFT81 (UniProt Q8WYA0), the log2 fold change was inactive: 0.032.
Regarding ING2 (UniProt Q9H160), the log2 fold change was inactive: -0.12.
Regarding INO80 (UniProt Q9ULG1), the log2 fold change was inactive: 0.148.
The same measure, in the same setting: under IL13RA1 (UniProt P78552) stands inactive: -0.013; under IDUA (UniProt P35475), inactive: -0.128.

Compound in a further assay: NC(=O)Nc1cc(-c2cccc(F)c2)sc1C(=O)N[C@H]1CCCNC1
The assay is described as above. The procedure, abridged: as §1
For INAFM2 (UniProt P0DMQ5), the log2 fold change is inactive: 0.029.
Same read-out and setting: then IMP4 (UniProt Q96G21), with inactive: 0.017; and IL15RA (UniProt Q13261), with inactive: -0.034.
Consider IGLL5 (UniProt B9A064), for which the log2 fold change is inactive: -0.052.
Regarding ING4 (UniProt Q9UNL4), the log2 fold change is inactive: 0.037.
In the case of ILF3 (UniProt K7EKJ9), the log2 fold change was inactive: 0.049.
On the same count and under the same terms, under IFT81 (UniProt Q8WYA0) stands inactive: 0.041; under ING2 (UniProt Q9H160), inactive: -0.014; under INO80 (UniProt Q9ULG1), inactive: -0.05.
As to IL13RA1 (UniProt P78552), the log2 fold change was inactive: 0.039.
For the target IDUA (UniProt P35475), the log2 fold change was inactive: -0.19.

Compound in the next assay: NC(=O)c1cnc(N[C@@H]2CCCC[C@@H]2N)nc1Nc1cccc(-n2nccn2)c1
The assay is described as above. Summed up:
as §1
As to IGFN1 isoform 5 (UniProt Q86VF2), the log2 fold change was inactive: -0.133.
On the same count and under the same terms, under IGF2BP2 isoform 6 (UniProt Q9Y6M1) stands inactive: 0.079; under IMP4 (UniProt Q96G21), inactive: 0.046; under HYOU1, A0A494C039, inactive: 0.005.
On to IDS (UniProt P22304), for which the log2 fold change was inactive: -0.001.
Consider HSPH1 (UniProt Q5TBM3), for which the log2 fold change was inactive: 0.015.
On the same count and under the same terms, then HVCN1 (UniProt Q96D96), with inactive: -0.121.
Take IGLL5 (UniProt B9A064): the log2 fold change was inactive: -0.155.
Consider ING4 (UniProt Q9UNL4), for which the log2 fold change was inactive: 0.077.
ILF3 (UniProt K7EKJ9): the log2 fold change is inactive: 0.165.
Consider HYDIN (UniProt Q4G0P3), for which the log2 fold change was inactive: -0.282.
With IDH3A isoform 2 (UniProt P50213), the log2 fold change is inactive: -0.069.
Still for that read-out and setting: under HUWE1 isoform 2 (UniProt Q7Z6Z7) stands inactive: 0.009; under HSPH1 isoform 2 (UniProt Q92598), inactive: -0.064; under HUWE1, A0A087X1S3, inactive: -0.086.
In the case of IFIH1 (UniProt Q9BYX4), the log2 fold change was inactive: -0.237.
On to INIP (UniProt Q9NRY2), for which the log2 fold change was inactive: -0.02.
Take INO80 (UniProt Q9ULG1): the log2 fold change is inactive: -0.116.

Compound in a further assay: NC1(c2ccc(-c3nc4ccn5c(=O)[nH]nc5c4cc3-c3ccccc3)cc2)CCC1
The description is as above. Summed up: as §1
As to IFI16 (UniProt Q16666), the log2 fold change is inactive: -0.054.
On to HYOU1, A0A494C039, for which the log2 fold change is inactive: 0.03.
With IDS (UniProt P22304), the log2 fold change was inactive: 0.025.
With HVCN1 (UniProt Q96D96), the log2 fold change is inactive: -0.264.
As for IFT22 (UniProt Q9H7X7), the log2 fold change is inactive: 0.
IGLL5 (UniProt B9A064): the log2 fold change was inactive: 0.775.
On the same count and under the same terms, under INPP5A (UniProt Q14642) stands inactive: -0.037; under INPP5D (UniProt Q92835), inactive: 0.342.
Consider IGHV3-72, A0A4W8ZXM2, for which the log2 fold change was inactive: 0.567.
On to ICAM4 isoform 3 (UniProt Q14773), for which the log2 fold change is inactive: -0.048.
As to INO80B (UniProt Q9C086), the log2 fold change was inactive: -0.029.
As for INIP (UniProt Q9NRY2), the log2 fold change is inactive: 0.06.
